PubChem BioAssay AID1259308 | NCATS | 2017
Aim: 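Candidate targets for better recombinant protein yield in mammalian cells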 (primary screen). System: human HEK293 embryonic kidney cells stably expressing firefly luciferase (HEK-CMV-Luc2-Hygro). Reagent: single siRNA against human genes, 0.8 pmol siRNA per well. Duration: 72 h. Detection: 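Luciferase light (ONE-Glo) measured on one replicate plate set and viability (CellTiter-Glo) on the other, scaled to a negative control siRNA, with robust z-scores and luciferase per cell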. Direction: total luciferase, z-score and total luciferase, % of control: higher = more reporter protein produced. Call rule: 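An siRNA counts as active if its total luciferase robust z-score exceeds 3; genes with two or more such siRNAs out of three were retested with fresh siRNAs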. Calls: active = raised luciferase; inactive = no rise.
The deposit covers about 59,000 reagents; shown is a random part of them. About 1,510 of them (2.6%) count as active. 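Calls use total luciferase alone and ignore viability, so some active siRNAs may act by altering cell number.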 Reagents against one gene are numbered here. Not all columns of the deposit are shown. No sequences are given here.

gene symbol	reagent	total luciferase, z-score	total luciferase, % of control	call
IRAG1 (inositol 1,4,5-triphosphate receptor associated 1)	1	-0.571	70.5	inactive
IRAG1 (inositol 1,4,5-triphosphate receptor associated 1)	2	-1.97	42.6	inactive
IRAG1 (inositol 1,4,5-triphosphate receptor associated 1)	3	3.03	142	active
PTGES3P1 (prostaglandin E synthase 3 pseudogene 1)	1	-0.877	64.4	inactive
PTGES3P1 (prostaglandin E synthase 3 pseudogene 1)	2	-0.24	77.1	inactive
PTGES3P1 (prostaglandin E synthase 3 pseudogene 1)	3	-0.168	78.6	inactive
SLC16A1	1	-1.1	60	inactive
SLC16A1	2	-1.81	45.8	inactive
SLC16A1	3	1.45	111	inactive
PPIA (peptidylprolyl isomerase A)	1	-0.803	65.9	inactive
PPIA (peptidylprolyl isomerase A)	2	-0.705	67.9	inactive
PPIA (peptidylprolyl isomerase A)	3	0.0714	83.3	inactive
LDB3 (LIM domain binding 3)	1	-0.247	77	inactive
LDB3 (LIM domain binding 3)	2	-1.07	60.6	inactive
LDB3 (LIM domain binding 3)	3	0.0811	83.5	inactive
P2RY11 (purinergic receptor P2Y11)	1	0.312	88.1	inactive
P2RY11 (purinergic receptor P2Y11)	2	-0.397	74	inactive
P2RY11 (purinergic receptor P2Y11)	3	1.09	104	inactive
ABCF1 (ATP binding cassette subfamily F member 1)	1	0.282	87.5	inactive
ABCF1 (ATP binding cassette subfamily F member 1)	2	-0.0178	81.5	inactive
ABCF1 (ATP binding cassette subfamily F member 1)	3	-0.601	69.9	inactive
PPM1F (protein phosphatase, Mg2+/Mn2+ dependent 1F)	1	0.554	92.9	inactive
PPM1F (protein phosphatase, Mg2+/Mn2+ dependent 1F)	2	-0.591	70.1	inactive
PPM1F (protein phosphatase, Mg2+/Mn2+ dependent 1F)	3	-0.587	70.2	inactive
NMT1 (N-myristoyltransferase 1)	1	1.84	118	inactive
NMT1 (N-myristoyltransferase 1)	2	-0.362	74.7	inactive
NMT1 (N-myristoyltransferase 1)	3	-0.409	73.8	inactive
OPN4 (opsin 4)	1	-0.0946	80	inactive
OPN4 (opsin 4)	2	-0.731	67.4	inactive
OPN4 (opsin 4)	3	-0.213	77.6	inactive

Targets listed so far whose target name begins with O or o (3):
gene symbol	reagent	total luciferase, z-score	total luciferase, % of control	call
OPN4 (opsin 4)	1	-0.0946	80	inactive
OPN4 (opsin 4)	2	-0.731	67.4	inactive
OPN4 (opsin 4)	3	-0.213	77.6	inactive

Further reagents follow.
gene symbol	reagent	total luciferase, z-score	total luciferase, % of control	call
SEZ6 (seizure related 6 homolog)	1	-3.27	16.8	inactive
SEZ6 (seizure related 6 homolog)	2	0.105	84	inactive
SEZ6 (seizure related 6 homolog)	3	-0.155	78.8	inactive
BRCA2 (BRCA2 DNA repair associated)	1	0.18	85.5	inactive
BRCA2 (BRCA2 DNA repair associated)	2	0.541	92.7	inactive
BRCA2 (BRCA2 DNA repair associated)	3	-0.768	66.6	inactive
SNX19P3 (sorting nexin 19 pseudogene 3)	1	0.273	87.3	inactive
SNX19P3 (sorting nexin 19 pseudogene 3)	2	-1.18	58.4	inactive
SNX19P3 (sorting nexin 19 pseudogene 3)	3	0.02	82.3	inactive
SNX19P3 (sorting nexin 19 pseudogene 3)	4	1.44	111	inactive
SNX19P3 (sorting nexin 19 pseudogene 3)	5	-0.713	67.7	inactive
SNX19P3 (sorting nexin 19 pseudogene 3)	6	-1.89	44.3	inactive
SNX19P3 (sorting nexin 19 pseudogene 3)	7	2.03	122	inactive
SNX19P3 (sorting nexin 19 pseudogene 3)	8	0.707	95.9	inactive
SNX19P3 (sorting nexin 19 pseudogene 3)	9	0.819	98.2	inactive
